The record followed here is patent US20110059097A1 (UNIVERSITY HEALTH NETWORK, published 2011).

Results are given in words; binding and its absence hold for the method and conditions named. Some entries that bind do so weakly or less than the wild type.

Experiment [1] addresses T1, human MFAP4 on ex vivo-expanded human DNT cells (human) (UniProt P55083).
T1 sequence: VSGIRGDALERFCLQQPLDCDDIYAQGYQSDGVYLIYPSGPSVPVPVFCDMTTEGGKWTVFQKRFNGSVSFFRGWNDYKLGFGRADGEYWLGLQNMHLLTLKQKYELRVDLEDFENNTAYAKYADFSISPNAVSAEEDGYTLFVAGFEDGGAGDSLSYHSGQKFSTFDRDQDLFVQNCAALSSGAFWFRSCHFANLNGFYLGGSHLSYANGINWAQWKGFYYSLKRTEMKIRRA
Nature of the experiment: flow cytometry on ex vivo-expanded human DNT cells. (In general: In flow cytometry, cells or beads pass a laser one at a time.)

Experiment [2] concerns the target T1, human MFAP4 on ex vivo-expanded human DNT cells (human). In words: flow cytometry on human DNT cells, 10 days after ex vivo expansion.

B1: G1 monoclonal antibody (antibody, V domains shown)
VH: EVKLVESGGGLVQPGRSLKLSCAASGFPFSNYGMAWVRQAPTKGLAWVATISYDGRSTYYRDSVKGRFTISRNNAKSTLYLQMDSLRSEDTATYYCVRHELPEDHWGQGVMVTVSS
VL: DIVMTQSPFSLAVSEGEMVTINCKSGQSLLSSGNQKNYLAWYQQKPGQSPKLLIYYSSTRQSGVPDRFIGSGSGTDFTLTISDVQAEDLADYYCLQHYSSPFTFGSGTKLEIK
notes: Hybridoma monoclonal antibody raised against cell surface molecules of tumor-reactive mouse DNT cells; also called G1 mAb; mAb (clone: G1)
Regarding B1, the binding result in experiment [1] and in experiment [2] was “binds” throughout.
